Test [1] concerns Enterococcus faecalis. Kind of test: Antibacterial activity against vancomycin-susceptible Enterococcus faecalis EF 12704 by broth microdilution method. The test is classed as functional. On the technique in general: Dilution methods test growth across graded concentrations, often in twofold steps.
Test [2] deals with Enterococcus faecalis. Description: Antibacterial activity against vancomycin-resistant Enterococcus faecalis EF NJ1 by broth microdilution method. The format is functional.

Our source for the MIC values is ChEMBL document CHEMBL1649273, “In vivo activity of a novel anti-methicillin-resistant Staphylococcus aureus cephalosporin, ceftaroline, against vancomycin-susceptible and -resistant Enterococcus faecalis strains in a rabbit endocarditis model: a comparative study with linezolid and vancomycin” (2009).

Values after ≈ are worked out from the molar mass of the structure shown.

Take `CN[C@H](CC(C)C)C(=O)N[C@H]1C(=O)N[C@@H](CC(N)=O)C(=O)N[C@H]2C(=O)N[C@H]3C(=O)N[C@H](C(=O)N[C@H](C(=O)O)c4cc(O)cc(O)c4-c4cc3ccc4O)[C@H](O)c3ccc(c(Cl)c3)Oc3cc2cc(c3O[C@@H]2O[C@H](CO)[C@@H](O)[C@H](O)[C@H]2O[C@H]2C[C@](C)(N)[C@H](O)[C@H](C)O2)Oc2ccc(cc2Cl)[C@H]1O` [VANCOMYCIN]: the MIC in test [1] is 2 µg/mL (≈ 1.38 µM); in test [2], greater than 256 µg/mL.

A word on the MIC: it is the lowest concentration that inhibits growth of the organism. Read a low MIC as inhibition by little substance.
